Values quoted from earlier work, collected in patent US7582604B2, “Template-fixed peptidomimetics with antibacterial activity” (Polyphor Ltd., priority 2002, dated 2009).
Some results were stated once for a whole list of compounds, not compound by compound.

Tested on: wide range of pathogens
Conditions: over a wide range of pathogens; typical values; cited from earlier work

Substance	average MIC-values
tachyplesin [iachyplesin]	1 to 5 mg/L
protegrin	1 to 5 mg/L
